We go through 36 compounds from the supplement of paper PMC12823440, “Inhibitors supercharge kinase turnover through native proteolytic circuits” (Nature, 2025).

By UniProt entry, the sequences of proteins in these tests, tags left out.
UniProt P29317, whole entry: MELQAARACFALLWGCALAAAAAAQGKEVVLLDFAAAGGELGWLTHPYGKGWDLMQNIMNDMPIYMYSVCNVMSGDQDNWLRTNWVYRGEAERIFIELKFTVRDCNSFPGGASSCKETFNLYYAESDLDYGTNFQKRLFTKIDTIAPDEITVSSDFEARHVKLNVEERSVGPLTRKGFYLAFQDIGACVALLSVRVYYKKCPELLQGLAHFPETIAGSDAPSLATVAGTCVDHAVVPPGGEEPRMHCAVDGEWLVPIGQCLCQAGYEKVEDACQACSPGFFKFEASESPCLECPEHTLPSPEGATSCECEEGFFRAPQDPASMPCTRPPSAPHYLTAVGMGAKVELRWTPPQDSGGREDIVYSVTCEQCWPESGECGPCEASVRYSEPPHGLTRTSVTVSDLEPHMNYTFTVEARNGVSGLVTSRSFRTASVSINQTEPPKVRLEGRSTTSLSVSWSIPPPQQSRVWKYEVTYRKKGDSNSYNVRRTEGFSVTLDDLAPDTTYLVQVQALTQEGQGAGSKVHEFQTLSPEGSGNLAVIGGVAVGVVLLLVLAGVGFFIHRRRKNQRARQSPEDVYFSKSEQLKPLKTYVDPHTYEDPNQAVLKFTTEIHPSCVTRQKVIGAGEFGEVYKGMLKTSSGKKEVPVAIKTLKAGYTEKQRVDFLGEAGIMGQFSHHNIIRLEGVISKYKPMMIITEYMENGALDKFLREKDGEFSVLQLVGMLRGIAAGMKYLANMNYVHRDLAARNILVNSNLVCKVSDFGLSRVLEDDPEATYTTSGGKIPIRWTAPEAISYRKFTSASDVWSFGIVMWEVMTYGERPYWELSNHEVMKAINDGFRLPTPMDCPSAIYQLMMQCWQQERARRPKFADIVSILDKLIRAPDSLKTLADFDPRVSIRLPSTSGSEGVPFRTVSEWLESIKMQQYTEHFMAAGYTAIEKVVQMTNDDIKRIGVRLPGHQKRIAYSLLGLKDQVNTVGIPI

Where a name gives a salt, the structure may show the parent alone. The list shows a part of the results. Hit calls seldom repeat between salt and free forms of one compound.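 Kinases, fused to nanoluciferase, were expressed in K562 cells; luminescence was measured every 4 h from 2 to 18 h as percent of control (DMSO = 100%, positive control = 0%). A time point is decreased if signal falls significantly (2 sigma). Hits were called by the authors by a rule that is not shown; the count of time points alone does not decide it.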

One assay concerns the target EGFR_T790M (UniProt P00533). Nature of the assay: kinase-Nluc reporter destabilization hit call (1 = scored as downregulated) (binary); higher = compound decreases kinase abundance. As to conditions: 10 µM; K562; 2-18 h.
In the case of `COc1cc2c(-c3cnn4cc(N5CCC(N6CCN(C)CC6)CC5)cnc34)ccnc2cc1F` [ALK2-IN-4 (succinate)], the “kinase-Nluc reporter destabilization hit call” value is inactive: 0.

As for `C#Cc1cccc(Nc2ncnc3cc(OCCOC)c(OCCO)cc23)c1` [Desmethyl Erlotinib], the “kinase-Nluc reporter destabilization hit call” value is inactive: 0.

In the case of `N=C(N)NC(=O)c1nc(Cl)c(N)nc1N` [Amiloride (hydrochloride)], the “kinase-Nluc reporter destabilization hit call” value was inactive: 0.

With `N#CC[C@H](C1CCCC1)n1cc(-c2ncnc3[nH]ccc23)cn1` [Ruxolitinib (phosphate)], the “kinase-Nluc reporter destabilization hit call” value is inactive: 0.

As to `CC(=O)c1c(C)c2cnc(Nc3ccc(N4CCNCC4)cn3)nc2n(C2CCCC2)c1=O` [Palbociclib (monohydrochloride)], the “kinase-Nluc reporter destabilization hit call” value is inactive: 0.

Take `O=C(O)c1ccc2c(c1)nc(Nc1cccc(Cl)c1)c1ccncc12` [Silmitasertib (sodium salt)]: the “kinase-Nluc reporter destabilization hit call” value is inactive: 0.

`COc1ccnc(C[S+]([O-])c2nc3cc(-n4cccc4)ccc3[nH]2)c1C` (stereo unspecified) [Ilaprazole (sodium)]: the “kinase-Nluc reporter destabilization hit call” value was inactive: 0.

With `CC(C)NC[C@@H](C(=O)N1CCN(c2ncnc3c2[C@H](C)C[C@H]3O)CC1)c1ccc(Cl)cc1` [Ipatasertib (dihydrochloride)], the “kinase-Nluc reporter destabilization hit call” value was inactive: 0.

Regarding `CC(=O)c1c(C)c2cnc(Nc3ccc(N4CCNCC4)cn3)nc2n(C2CCCC2)c1=O` [Palbociclib (isethionate)], the “kinase-Nluc reporter destabilization hit call” value is inactive: 0.

For the compound `O=C(c1ccc(F)c(F)c1Nc1ccc(I)cc1F)N1CC(O)([C@@H]2CCCCN2)C1` [Cobimetinib (hemifumarate)], the “kinase-Nluc reporter destabilization hit call” value is inactive: 0.

As to `COC(=O)[C@H](CC(C)C)NC(=O)c1ccc(NC[C@@H](N)CS)cc1-c1cccc2ccccc12`, the “kinase-Nluc reporter destabilization hit call” value is inactive: 0.

In the case of `N#CCNC(=O)c1ccc(-c2ccnc(Nc3ccc(N4CCOCC4)cc3)n2)cc1` [Momelotinib], the “kinase-Nluc reporter destabilization hit call” value is inactive: 0.

Turning to `CC(=O)Nc1cccc(-n2c(=O)n(C3CC3)c(=O)c3c(Nc4ccc(I)cc4F)n(C)c(=O)c(C)c32)c1` [Trametinib], the “kinase-Nluc reporter destabilization hit call” value was inactive: 0.

For the compound `O=C(Nc1cnn2ccc(N3CCC[C@@H]3c3cc(F)ccc3F)nc12)N1CC[C@H](O)C1` [Larotrectinib sulfate], the “kinase-Nluc reporter destabilization hit call” value is inactive: 0.

For `C#Cc1cccc(Nc2ncnc3cc4c(cc23)OCCOCCOCCO4)c1` [Icotinib (Hydrochloride)], the “kinase-Nluc reporter destabilization hit call” value is inactive: 0.

Turning to `COc1cc2nccc(Oc3ccc(NC(=O)C4(C(=O)Nc5ccc(F)cc5)CC4)cc3)c2cc1OC` [Cabozantinib (S-malate)], the “kinase-Nluc reporter destabilization hit call” value was inactive: 0.

In the case of `N#CC[C@H](C1CCCC1)n1cc(-c2ncnc3[nH]ccc23)cn1` [Ruxolitinib], the “kinase-Nluc reporter destabilization hit call” value is active: 1.

With `CS(=O)(=O)N1CCN(Cc2cc3nc(-c4cccc5[nH]ncc45)nc(N4CCOCC4)c3s2)CC1` [Pictilisib (dimethanesulfonate)], the “kinase-Nluc reporter destabilization hit call” value was inactive: 0.

For `N#CCNC(=O)c1ccc(-c2ccnc(Nc3ccc(N4CCOCC4)cc3)n2)cc1` [Momelotinib sulfate], the “kinase-Nluc reporter destabilization hit call” value is inactive: 0.

In the case of `C[C@H](CCC(=O)NCCS(=O)(=O)O)[C@H]1CC[C@H]2[C@@H]3[C@@H](O)C[C@@H]4C[C@H](O)CC[C@]4(C)[C@H]3CC[C@]12C` [Tauroursodeoxycholate (sodium)], the “kinase-Nluc reporter destabilization hit call” value is inactive: 0.

For the compound `CN(C)C(=N)NC(=N)N` [Metformin (hydrochloride)], the “kinase-Nluc reporter destabilization hit call” value is inactive: 0.

As to `C/C=C1\C(=O)C[C@H]2[C@@H]3CCC4=CC(=O)CC[C@]4(C)[C@H]3CC[C@]12C` [Guggulsterone], the “kinase-Nluc reporter destabilization hit call” value is inactive: 0.

For the compound `Cn1cc(-c2cnc3ccc4ccc(CS(=O)(=O)NCc5ccccn5)cc4c(=O)c3c2)cn1` [MK-8033 (hydrochloride)], the “kinase-Nluc reporter destabilization hit call” value is inactive: 0.

Regarding `C/C=C1\C(=O)C[C@H]2[C@@H]3CCC4=CC(=O)CC[C@]4(C)[C@H]3CC[C@]12C` [(Z)-Guggulsterone], the “kinase-Nluc reporter destabilization hit call” value was inactive: 0.

Turning to `COc1cc2c(-c3cnn4cc(N5CCC(N6CCN(C)CC6)CC5)cnc34)ccnc2cc1F`, the “kinase-Nluc reporter destabilization hit call” value is inactive: 0.

In the next assay the target is EPHA2 (UniProt P29317). The assay is described as above. As to conditions: 2.5 µM; K562; 2-18 h.
As for `C[C@H](Nc1cc(-c2cnn(C)c2)cc(Nc2cnccn2)n1)c1ccc(F)cc1` [Ilginatinib hydrochloride], the “kinase-Nluc reporter destabilization hit call” value is inactive: 0.

Consider `Cc1cccc(/C=N/Nc2cc(N3CCOCC3)nc(OCCc3ccccn3)n2)c1` [Apilimod], for which the “kinase-Nluc reporter destabilization hit call” value was inactive: 0.

Take `Cc1ccc(NC(=O)c2ccc(CN3CCN(C)CC3)cc2)cc1Nc1nc(-c2cccnc2)cs1` [Masitinib (mesylate)]: the “kinase-Nluc reporter destabilization hit call” value was inactive: 0.

For `COc1cc2nccc(Oc3ccc(NC(=O)C4(C(=O)Nc5ccc(F)cc5)CC4)cc3)c2cc1OC` [Cabozantinib], the “kinase-Nluc reporter destabilization hit call” value was inactive: 0.

For the compound `Cc1cccc(-c2[nH]c(CNc3ccccc3F)nc2-c2ccc3ncnn3c2)n1` [Vactosertib (Hydrochloride)], the “kinase-Nluc reporter destabilization hit call” value was inactive: 0.

Consider `CC(C)Oc1ccc(-c2nn([C@@H](C)c3oc4ccc(F)cc4c(=O)c3-c3cccc(F)c3)c3ncnc(N)c23)cc1F` [Umbralisib (hydrochloride)], for which the “kinase-Nluc reporter destabilization hit call” value is inactive: 0.

On to `CN(C)C(=O)c1cc2cnc(Nc3ccc(N4CCNCC4)cn3)nc2n1C1CCCC1` [Ribociclib succinate hydrate], for which the “kinase-Nluc reporter destabilization hit call” value was inactive: 0.

In the case of `O=C(Nc1ccncc1)Nc1ccc(-c2nc(N3CCOCC3)nc(N3C4CCC3COC4)n2)cc1` [PKI-179 (hydrochloride)], the “kinase-Nluc reporter destabilization hit call” value is inactive: 0.

For `C=CC(=O)Nc1cc(Nc2nccc(-c3cn(C4CC4)c4ccccc34)n2)c(OC)cc1N(C)CCN(C)C` [Almonertinib (hydrochloride)], the “kinase-Nluc reporter destabilization hit call” value was inactive: 0.

For `C=CC(=O)Nc1cc2c(Nc3ccc(F)c(Cl)c3)ncnc2cc1C#CC(C)(C)N1CCN(C)CC1` [AV-412 (free base)], the “kinase-Nluc reporter destabilization hit call” value was inactive: 0.

Take `CNC(=O)c1cc(Oc2ccc(NC(=O)Nc3ccc(Cl)c(C(F)(F)F)c3)c(F)c2)ccn1` [Regorafenib]: the “kinase-Nluc reporter destabilization hit call” value is inactive: 0.
